Data on nine molecules can be found in PMC8982406.

The target in assay [1] is T1, ZC4H2 (wild type; mapping and mutation co-IPs) (UniProt Q9NQZ6).
T1 sequence: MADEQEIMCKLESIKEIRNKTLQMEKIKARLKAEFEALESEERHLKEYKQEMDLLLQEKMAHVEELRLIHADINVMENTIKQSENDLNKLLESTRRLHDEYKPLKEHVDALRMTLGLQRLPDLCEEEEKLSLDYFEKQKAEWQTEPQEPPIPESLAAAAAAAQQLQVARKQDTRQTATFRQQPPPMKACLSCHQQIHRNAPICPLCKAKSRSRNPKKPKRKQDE
The experiment in a line: co-IP; HEK293 cells transiently transfected with FLAG- or myc-tagged RLIM and ZC4H2 vectors; lysis in 50 mM Tris-HCl pH 7.4, 150 mM NaCl, 5 mM EDTA, 1% Triton X-100; anti-FLAG M2 beads, 4°C, 4 h; western blotting.

The target of assay [2] is T2, endogenous RLIM (Daoy cells) (human (endogenous in Daoy)) (UniProt Q9NVW2).
T2 sequence: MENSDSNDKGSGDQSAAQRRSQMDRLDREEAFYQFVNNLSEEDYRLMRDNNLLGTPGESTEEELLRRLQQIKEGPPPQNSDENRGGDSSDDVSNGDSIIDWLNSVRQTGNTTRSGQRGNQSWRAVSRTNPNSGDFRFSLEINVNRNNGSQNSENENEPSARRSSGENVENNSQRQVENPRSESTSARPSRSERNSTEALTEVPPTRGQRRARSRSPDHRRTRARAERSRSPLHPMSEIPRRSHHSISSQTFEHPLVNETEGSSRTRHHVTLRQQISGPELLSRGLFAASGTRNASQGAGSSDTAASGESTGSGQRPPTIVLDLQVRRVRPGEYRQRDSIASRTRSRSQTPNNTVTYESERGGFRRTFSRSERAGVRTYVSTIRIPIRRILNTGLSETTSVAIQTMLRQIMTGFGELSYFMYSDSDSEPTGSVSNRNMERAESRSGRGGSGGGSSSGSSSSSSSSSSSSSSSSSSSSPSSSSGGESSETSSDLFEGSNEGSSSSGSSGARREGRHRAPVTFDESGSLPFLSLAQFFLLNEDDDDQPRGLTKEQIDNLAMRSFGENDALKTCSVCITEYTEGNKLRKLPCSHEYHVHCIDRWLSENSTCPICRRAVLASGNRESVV
The experiment in a line: co-IP; endogenous RLIM immunoprecipitated with an RLIM antibody from Daoy cell or Ptch1+/- MB tissue lysate; 50 mM Tris-HCl pH 7.4, 150 mM NaCl, 5 mM EDTA, 1% Triton X-100; 4°C, 4 h; western blotting.

For assay [3], the target named is T3, endogenous RLIM (Ptch1+/- MB tissue) (mouse (endogenous in Ptch1+/- MB tissue)) (UniProt Q9WTV7).
T3 sequence: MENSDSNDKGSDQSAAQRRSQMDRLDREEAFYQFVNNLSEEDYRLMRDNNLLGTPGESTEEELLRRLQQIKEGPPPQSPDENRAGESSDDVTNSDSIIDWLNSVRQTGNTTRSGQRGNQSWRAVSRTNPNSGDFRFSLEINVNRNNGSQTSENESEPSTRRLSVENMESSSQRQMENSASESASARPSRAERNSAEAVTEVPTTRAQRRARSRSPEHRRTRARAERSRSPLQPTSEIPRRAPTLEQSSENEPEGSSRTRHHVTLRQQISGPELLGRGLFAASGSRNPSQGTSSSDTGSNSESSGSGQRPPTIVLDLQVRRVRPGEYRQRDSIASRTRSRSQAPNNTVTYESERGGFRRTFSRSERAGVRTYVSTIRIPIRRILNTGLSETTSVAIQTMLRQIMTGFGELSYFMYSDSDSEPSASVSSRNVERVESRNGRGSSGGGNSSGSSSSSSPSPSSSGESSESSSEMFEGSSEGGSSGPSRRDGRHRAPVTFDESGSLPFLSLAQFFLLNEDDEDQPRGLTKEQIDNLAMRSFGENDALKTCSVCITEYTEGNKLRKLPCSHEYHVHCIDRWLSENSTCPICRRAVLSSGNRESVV
Described as above.

Positions count from the first letter of the chain named. Numbers in names are those of the source. These are yes or no findings as the source states them, for the method shown. Binding seen in cells or lysates may run through a third protein. Some binding calls cover weakened binding; strength is not graded here.

B1: RLIM R387C (protein, UniProt Q9NVW2 1-624)
chain: T2 sequence with R387C
Regarding B1, the binding entry in assay [1] is “binds”.

B2: RLIM P587R (protein, UniProt Q9NVW2 1-624)
chain: T2 sequence with P587R
As to B2, the binding result in assay [1] is given as “binds”.

B3: RLIM R611C (protein, UniProt Q9NVW2 1-624)
chain: T2 sequence with R611C
As to B3, the binding result in assay [1] is “binds”.

B4: RLIM P77L (protein, UniProt Q9NVW2 1-624)
chain: T2 sequence with P77L
Turning to B4, the binding entry in assay [1] is given as “binds”.

B5: RLIM R365C (protein, UniProt Q9NVW2 1-624)
chain: T2 sequence with R365C
Consider B5, for which the binding result in assay [1] is “binds”.

B6: RLIM R599C (protein, UniProt Q9NVW2 1-624)
chain: T2 sequence with R599C
Take B6: the binding result in assay [1] is listed as “binds”.

B7: RLIM D598N (protein, UniProt Q9NVW2 1-624)
chain: T2 sequence with D598N
Consider B7, for which the binding entry in assay [1] is recorded as “binds”.

B8: endogenous ZC4H2 (Daoy cells) (protein, UniProt Q9NQZ6 1-224)
chain: T1 sequence
In the case of B8, in assay [2], the binding result is “binds”.

B9: endogenous ZC4H2 (Ptch1+/- MB tissue) (protein, UniProt Q68FG0 1-224)
chain: T1 sequence
On to B9, for which the binding entry in assay [3] is “binds”.
